In article PMC8906119:
No constants are given. Whether binding was seen depends on the method and setting. Binding seen in cells or lysates may run through a third protein. Here binding means that the protein was enriched with, or labelled near, the bait; the list need not be complete.

Target: WW domain-containing E3 ubiquitin protein ligase1 (WWP1) (human (endogenous in HuCCT1, HCCC-9810, RBE)) (UniProt Q9H0M0)
Assay: affinity purification with mass spectrometry; immunoprecipitation with WWP1 antibody from ICC cells, SDS-PAGE with Coomassie blue staining, label-free mass spectrometry

B1: Nedd4 family interacting protein1 (NDFIP1) (protein, UniProt Q9BT67 1-221)
chain: MALALAALAAVEPACGSRYQQLQNEEESGEPEQAAGDAPPPYSSISAESAAYFDYKDESGFPKPPSYNVATTLPSYDEAERTKAEATIPLVPGRDEDFVGRDDFDDADQLRIGNDGIFMLTFFMAFLFNWIGFFLSFCLTTSAAGRYGAISGFGLSLIKWILIVRFSTYFPGYFDGQYWLWWVFLVLGFLLFLRGFINYAKVRKMPETFSNLPRTRVLFIY
- binding: binds
